In publication PMC6336354, “A transient helix in the disordered region of dynein light intermediate chain links the motor to structurally diverse adaptors for cargo transport” (PLoS Biology, 2019):
Read-outs that look alike come from different tables or passages of the source. These are yes or no findings as the source states them, for the method shown. Some entries that bind do so weakly or less than the wild type. For some of these results: Tags and fused reporters may be left off the sequences shown.

The chains behind the UniProt entries cited, without tags or fusion partners. Where a name states a change or a piece, a line headed by the entry shows the natural chain unless it says otherwise. A line that says so, or that is headed by a name, gives the form on record, which may keep a tag or linker.
GST::LIC2(451–492)::6xHis (O43237, form named): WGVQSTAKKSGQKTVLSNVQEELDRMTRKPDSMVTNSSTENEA
GST::LIC1-C(L451A/L452A)::6xHis (Q9Y6G9, form named): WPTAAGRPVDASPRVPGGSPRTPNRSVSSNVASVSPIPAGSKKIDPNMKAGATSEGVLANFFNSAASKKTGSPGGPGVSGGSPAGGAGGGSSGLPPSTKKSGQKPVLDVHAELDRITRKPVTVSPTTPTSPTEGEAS
GST::LIC1-C(Δ440–455)::6xHis (Q9Y6G9, form named): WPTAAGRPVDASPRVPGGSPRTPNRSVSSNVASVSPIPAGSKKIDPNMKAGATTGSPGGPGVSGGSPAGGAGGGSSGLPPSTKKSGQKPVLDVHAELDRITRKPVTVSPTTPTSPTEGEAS
GST::LIC1(472–523)::6xHis (Q9Y6G9, form named): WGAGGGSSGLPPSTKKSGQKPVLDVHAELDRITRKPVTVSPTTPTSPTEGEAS
GST::LIC1-C(F447A/F448A)::6xHis (Q9Y6G9, form named): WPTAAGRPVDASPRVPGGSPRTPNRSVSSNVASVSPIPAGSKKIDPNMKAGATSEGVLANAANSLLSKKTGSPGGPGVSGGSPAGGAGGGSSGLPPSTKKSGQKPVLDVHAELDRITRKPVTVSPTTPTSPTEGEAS
GST::LIC1(440–523)::6xHis (Q9Y6G9, form named): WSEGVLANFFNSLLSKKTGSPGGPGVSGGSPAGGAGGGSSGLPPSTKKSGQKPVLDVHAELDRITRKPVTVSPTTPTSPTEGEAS
GST::LIC1(388–523)::6xHis (Q9Y6G9, form named): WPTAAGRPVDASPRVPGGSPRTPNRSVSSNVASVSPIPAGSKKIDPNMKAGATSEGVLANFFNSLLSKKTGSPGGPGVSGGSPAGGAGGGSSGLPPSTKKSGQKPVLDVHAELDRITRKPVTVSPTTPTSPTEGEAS
UniProt Q96NA2: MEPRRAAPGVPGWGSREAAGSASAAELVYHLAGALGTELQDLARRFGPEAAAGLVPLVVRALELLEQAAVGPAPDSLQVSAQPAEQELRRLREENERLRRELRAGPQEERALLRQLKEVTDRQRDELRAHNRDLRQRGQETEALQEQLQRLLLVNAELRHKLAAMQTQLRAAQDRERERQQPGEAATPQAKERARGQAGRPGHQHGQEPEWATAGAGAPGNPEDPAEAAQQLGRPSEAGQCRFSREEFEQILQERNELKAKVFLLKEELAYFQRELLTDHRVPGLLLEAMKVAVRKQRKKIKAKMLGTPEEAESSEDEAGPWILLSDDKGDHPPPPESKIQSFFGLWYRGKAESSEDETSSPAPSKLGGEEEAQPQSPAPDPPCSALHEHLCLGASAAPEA

How the values were obtained:
Assay in all cases: pull-down; GST::LIC::6xHis (50 pmol) with 50 or 250 pmol adaptor and glutathione agarose, 1 h at 4°C, 150 μL of 50 mM HEPES, 100 mM NaCl, 5 mM DTT, pH 7.5, 0.1% Tween 20; Coomassie staining and immunoblot against Strep-tag II; both purified
[1] = target: GST::LIC2(451–492)::6xHis (human) (UniProt O43237)
[2] = target: GST::LIC1-C(L451A/L452A)::6xHis (human) (UniProt Q9Y6G9)
[3] = target: GST::LIC1-C(Δ440–455)::6xHis (human) (UniProt Q9Y6G9)
[4] = target: GST::LIC1(472–523)::6xHis (human) (UniProt Q9Y6G9)
[5] = target: GST::LIC1-C(F447A/F448A)::6xHis (human) (UniProt Q9Y6G9)
[6] = target: GST::LIC1(440–455)::6xHis (human) (UniProt Q9Y6G9)
[7] = target: GST::LIC1(440–523)::6xHis (human) (UniProt Q9Y6G9)
[8] = target: GST::LIC1(388–523)::6xHis (human) (UniProt Q9Y6G9)
[9] = target: GST::LIC2(451–492)::6xHis (human) (UniProt O43237); remark: listed apart in the source

RILP(1–401)::Strep-tag II (from UniProt Q96NA2 1-401)
binding [1]: no binding (tested: 50 pmol in 150 μL)

B1: HOOK3(2–552)::Strep-tag II (domain or fragment, UniProt Q86VS8 2-552)
chain: FSVESLERAELCESLLTWIQTFNVDAPCQTVEDLTNGVVMAQVLQKIDPAYFDENWLNRIKTEVGDNWRLKISNLKKILKGILDYNHEILGQQINDFTLPDVNLIGEHSDAAELGRMLQLILGCAVNCEQKQEYIQAIMMMEESVQHVVMTAIQELMSKESPVSAGNDAYVDLDRQLKKTTEELNEALSAKEEIAQRCHELDMQVAALQEEKSSLLAENQVLMERLNQSDSIEDPNSPAGRRHLQLQTQLEQLQEETFRLEAAKDDYRIRCEELEKEISELRQQNDELTTLADEAQSLKDEIDVLRHSSDKVSKLEGQVESYKKKLEDLGDLRRQVKLLEEKNTMYMQNTVSLEEELRKANAARSQLETYKRQVVELQNRLSEESKKADKLDFEYKRLKEKVDSLQKEKDRLRTERDSLKETIEELRCVQAQEGQLTTQGLMPLGSQESSDSLAAEIVTPEIREKLIRLQHENKMLKLNQEGSDNEKIALLQSLLDDANLRKNELETENRLVNQRLLEVQSQVEELQKSLQDQGSKAEDSVLLKKKLEEHL
binding [2]: no binding (tested: 50 pmol in 150 μL) | binding [3]: no binding (tested: 50 pmol in 150 μL) | binding [4]: no binding (tested: 50 pmol in 150 μL) | binding [5]: no binding (tested: 50 pmol in 150 μL) | binding [6]: no binding (tested: 50 pmol in 150 μL) | binding [7]: binds weakly

B2: 6xHis::MBP::TRAK1(103–187)::GCN4^CC::Strep-tag II (protein, UniProt Q9UPV9 103-187)
chain: GQMTKTYNDIDAVTRLLEEKERDLELAARIGQSLLKKNKTLTERNELLEEQVEHIREEVSQLRHELSMKDELLQFYTSAAEESEPVKQLEDKVEELLSKNAHLENEVARLKKLV
binding [2]: no binding (tested: 250 pmol in 150 μL) | binding [8]: binds weakly

B3: RAB11FIP3(2–756)::Strep-tag II (protein, UniProt O75154 2-756)
chain: ASAPPASPPGSEPPGPDPEPGGPDGPGAAQLAPGPAELRLGAPVGGPDPQSPGLDEPAPGAAADGGARWSAGPAPGLEGGPRDPGPSAPPPRSGPRGQLASPDAPGPGPRSEAPLPELDPLFSWTEEPEECGPASCPESAPFRLQGSSSSHRARGEVDVFSPFPAPTAGELALEQGPGSPPQPSDLSQTHPLPSEPVGSQEDGPRLRAVFDALDGDGDGFVRIEDFIQFATVYGAEQVKDLTKYLDPSGLGVISFEDFYQGITAIRNGDPDGQCYGGVASAQDEEPLACPDEFDDFVTYEANEVTDSAYMGSESTYSECETFTDEDTSTLVHPELQPEGDADSAGGSAVPSECLDAMEEPDHGALLLLPGRPHPHGQSVITVIGGEEHFEDYGEGSEAELSPETLCNGQLGCSDPAFLTPSPTKRLSSKKVARYLHQSGALTMEALEDPSPELMEGPEEDIADKVVFLERRVLELEKDTAATGEQHSRLRQENLQLVHRANALEEQLKEQELRACEMVLEETRRQKELLCKMEREKSIEIENLQTRLQQLDEENSELRSCTPCLKANIERLEEEKQKLLDEIESLTLRLSEEQENKRRMGDRLSHERHQFQRDKEATQELIEDLRKQLEHLQLLKLEAEQRRGRSSSMGLQEYHSRARESELEQEVRRLKQDNRNLKEQNEELNGQIITLSIQGAKSLFSTAFSESLAAEISSVSRDELMEAIQKQEEINFRLQDYIDRIIVAIMETNPSILEVK
binding [2]: no binding (tested: 50 pmol in 150 μL) | binding [3]: no binding (tested: 50 pmol in 150 μL) | binding [4]: no binding (tested: 50 pmol in 150 μL) | binding [5]: no binding (tested: 50 pmol in 150 μL) | binding [6]: no binding (tested: 50 pmol in 150 μL)

B4: 6xHis::MBP::TRAK1(103–187)::Strep-tag II (domain or fragment, UniProt Q9UPV9 103-187)
chain: GQMTKTYNDIDAVTRLLEEKERDLELAARIGQSLLKKNKTLTERNELLEEQVEHIREEVSQLRHELSMKDELLQFYTSAAEESEP
binding [8]: no binding (tested: 250 pmol in 150 μL)

B5: SPDL1(2–359)::Strep-tag II (domain or fragment, UniProt Q96EA4 2-359)
chain: EADIITNLRCRLKEAEEERLKAAQYGLQLVESQNELQNQLDKCRNEMMTMTESYEQEKYTLQREVELKSRMLESLSCECEAIKQQQKMHLEKLEEQLSRSHGQEVNELKTKIEKLKVELDEARLSEKQLKHQVDHQKELLSCKSEELRVMSERVQESMSSEMLALQIELTEMESMKTTLKEEVNELQYRQEQLELLITNLMRQVDRLKEEKEEREKEAVSYYNALEKARVANQDLQVQLDQALQQALDPNSKGNSLFAEVEDRRAAMERQLISMKVKYQSLKKQNVFNREQMQRMKLQIATLLQMKGSQTEFEQQERLLAMLEQKNGEIKHLLGEIRNLEKFKNLYDSMESKPSVDSG
binding [9]: no binding (tested: 250 pmol in 150 μL)
